# Laboratory results as given in patent US8648045B2, “VDAC1 compositions and methods of use thereof for regulating apoptosis” (Ben Gurion University of the Negev Research and Development …, priority 2005, dated 2014).
# At least one peptide structure holds a part that was inferred or is arguable (an end, a ring closure or a residue). Ends that are not written are not given here.
# Experiments:
# [1] = system: PBMCs isolated from CLL patients; type: cell-based, human; conditions: 10-40 μM, 90 min; PI staining, FACS
# Experimental: Peripheral blood mononuclear cells (PBMCs) were isolated from venous blood of patients with chronic lymphocytic leukemia (CLL) by Ficoll-Paque PLUS (GE Healthcare, Israel) density gradient centrifugation. After informed consent, venous blood (10 ml) was drawn from CLL patients satisfying diagnostic criteria for CLL or from normal adult donors. […]
# (§1) PBMCs (2×10^6 cells/sample) from CLL patients and healthy donors were treated with various concentrations of the peptide Antp-LP4-trp for 90 minutes. Cells were then gently washed once with PBS and stained with propidium iodide (PI) by adding 2.5 μl (1 mg/ml) and immediately analyzed for cell death. The level of cell death, reflected by the percentage of PI-positive cells, was determined by a flow cytometry analysis.
# Preipheral blood mononuclear cells (PMBC) isolated from pateints having chronic lymphocytic leukemia (CLL) and MEC-1 cell lines (human chronic B-cell leukemia) were incubated for 90 min with Peptide N-ANTP (SEQ ID NO:73) at concentrations of 10-40 μM. Cell death was measured by PI staning and FACS analysis. […]
# MEC-1 cell line = type: cell-based, human; conditions: 10-40 μM, 90 min; PI staining, FACS
# Experimental: as §1
# Preipheral blood mononuclear cells (PMBC) isolated from pateints having chronic lymphocytic leukemia (CLL) and MEC-1 cell lines (human chronic B-cell leukemia) were incubated for 90 min with Peptide N-ANTP (SEQ ID NO:73) at concentrations of 10-40 μM. Cell death was measured by PI staning and FACS analysis.
# [2] = system: HepG2, HCT116, MCF-7, PANC-1 and HeLa cells; assay: Cell viability by XTT; type: cell-based; conditions: 3 h, 0.5-10 μM, N=3
sequence,measurement,setting,value
MAVPPTYADLGKSARDVFTKGYGFGLMRQIKIWFQNRRMKWKK [N-ANTP],cell death,[1],induced the death of both cancer cell types
same,cell death,MEC-1 cell line,induced the death of both cancer cell types
same,cell viability (XTT),[2],dramatically reduced the viability
